{"source": "paper PMC11327102", "target": "T1, HA-TurboID-PRDX6 (not stated (human or mouse cDNA cloned)) (UniProt O08709)", "T1 sequence": "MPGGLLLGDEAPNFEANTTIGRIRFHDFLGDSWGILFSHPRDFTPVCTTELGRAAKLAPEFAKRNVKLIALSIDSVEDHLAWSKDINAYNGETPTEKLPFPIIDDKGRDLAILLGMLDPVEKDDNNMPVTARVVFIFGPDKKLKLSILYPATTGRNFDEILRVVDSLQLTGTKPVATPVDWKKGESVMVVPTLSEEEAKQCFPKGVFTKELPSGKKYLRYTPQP", "assay": "proximity labelling; WT or PRDX6 KO MEFs expressing HA-TurboID-empty, -PRDX1 or -PRDX6, 30 min with DMSO or 50 uM biotin; lysates incubated with Streptavidin Sepharose overnight at 4 °C; pulldown analysed by immunoblotting", "note": "These are yes or no findings as the source states them, for the method shown. In cells and extracts the contact can be indirect. Here binding means that the protein was enriched with, or labelled near, the bait; the list need not be complete. Sequences can lack the tags named with a protein."}
{"molecule": "selenophosphate synthetase 2 (SEPHS2) in MEFs (from UniProt P97364 1-452) (enzyme)", "values": [{"measurement": "binding", "result": "binds"}]}
{"molecule": "selenocysteine lyase (SCLY) in MEFs (enzyme, UniProt Q9JLI6 1-432) MDAARNGALGSVESLPDRKVYMDYNATTPLEPEVIQAVTEAMKEAWGNPSSSYVSGRKAKDIINAARASLAKMIGGKPQDIIFTSGGTESNNLVIHSMVRCFHEQQTLKGNMVDQHSPEEGTRPHFITCTVEHDSIRLPLEHLVENQMAEVTFVPVSKVNGQAEVEDILAAVRPTTCLVTIMLANNETGVIMPVSEISRRIKALNQIRAASGLPRVLVHTDAAQALGKRRVDVEDLGVDFLTIVGHKFYGPRIGALYVRGVGKLTPLYPMLFGGGQERNFRPGTENTPMIAGLGKAADLVSENCETYEAHMRDIRDYLEERLEAEFGKRIHLNSRFPGVERLPNTCNFSIQGSQLQGYTVLAQCRTLLASVGASCHSNHEDRPSPVLLSCGIPVDVARNAVRLSVGRGTTRADVDLIVQDLKQAVAQLEGRL", "values": [{"measurement": "binding", "result": "binds"}]}
